Laboratory results: PubChem BioAssay AID1671195 (Yale University, 2021)
Purpose: 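Regulators of LDL receptor activity judged by labelled LDL uptake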 (primary screen). Cells: human Huh7 hepatoma cells. Reagent: siRNA pool against human genes, 18 nM. Duration: about 2 to 2.5 days of knockdown, then 8 h LDL uptake. Challenge: DiI-labelled LDL at 30 µg/ml for 8 h, in lipoprotein-deficient serum medium. Measured: 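Per-cell DiI-LDL intensity by automated imaging; well means scaled to the plate median and given as a robust z-score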. Scale: robust z-score: higher = more LDL uptake after knockdown. Rule for the call: 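a gene counts as active if at least two replicate z-scores exceed ±2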.
This is a random part of about 22,000 reagents tested. Of all reagents, about 1,510 (6.9%) got an active call. 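Active includes knockdowns raising or lowering LDL uptake; positive z-scores mean more uptake, negative mean less.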 No sequences are given here.

What did the screen give for GCG?
robust z-score, replicate 1: -0.849; robust z-score, replicate 2: -0.633; robust z-score, replicate 3: -1.06; call: inactive

Which result is listed for LOC342934 (retired record)?
robust z-score, replicate 1: -0.977; robust z-score, replicate 2: -0.958; robust z-score, replicate 3: -0.508; call: inactive

What did the screen give for WASHC2A?
robust z-score, replicate 1: -0.783; robust z-score, replicate 2: -1.11; robust z-score, replicate 3: -0.451; call: inactive

With PIGT, how do the results read?
robust z-score, replicate 1: -1.97; robust z-score, replicate 2: -1.04; robust z-score, replicate 3: -1.38; call: inactive

What did the screen give for SAMD12?
robust z-score, replicate 1: 0.613; robust z-score, replicate 2: 0.418; robust z-score, replicate 3: 0.465; call: inactive

What did the screen give for PDIA5?
robust z-score, replicate 1: 0.684; robust z-score, replicate 2: -0.103; robust z-score, replicate 3: 1.16; call: inactive

For NUDT4, what was measured?
robust z-score, replicate 1: 0.0515; robust z-score, replicate 2: 0.518; robust z-score, replicate 3: 0.335; call: inactive

Which result is listed for H1-10?
robust z-score, replicate 1: 1.67; robust z-score, replicate 2: 0.197; robust z-score, replicate 3: 0.0742; call: inactive

With RETREG2, what does the deposit list?
robust z-score, replicate 1: -0.139; robust z-score, replicate 2: -0.0453; robust z-score, replicate 3: -0.873; call: inactive

With LIAS, how do the results read?
robust z-score, replicate 1: 0.878; robust z-score, replicate 2: 0.266; robust z-score, replicate 3: 0.826; call: inactive

With POT1, how do the results read?
robust z-score, replicate 1: 2.03; robust z-score, replicate 2: 2.26; robust z-score, replicate 3: 0.872; call: inactive

Which result is listed for CORO2B?
robust z-score, replicate 1: -1.03; robust z-score, replicate 2: -1.83; robust z-score, replicate 3: -2.01; call: inactive

What did the screen give for ZNF587?
robust z-score, replicate 1: -0.266; robust z-score, replicate 2: 0.144; robust z-score, replicate 3: -0.363; call: inactive

Which result is listed for SRPK3?
robust z-score, replicate 1: -1.22; robust z-score, replicate 2: -2.07; robust z-score, replicate 3: -2.03; call: active

What is on record for LIG1?
robust z-score, replicate 1: 0.954; robust z-score, replicate 2: 0.71; robust z-score, replicate 3: -0.23; call: inactive

What did the screen give for LOC440480 (retired record)?
robust z-score, replicate 1: -0.747; robust z-score, replicate 2: -0.973; robust z-score, replicate 3: -0.838; call: inactive

What is on record for ADAMTS5?
robust z-score, replicate 1: -1.6; robust z-score, replicate 2: -1.31; robust z-score, replicate 3: -1.46; call: inactive

Which result is listed for BARHL2?
robust z-score, replicate 1: 0.498; robust z-score, replicate 2: 0.965; robust z-score, replicate 3: 1.4; call: inactive

For KRTAP9-4, what was measured?
robust z-score, replicate 1: 2.52; robust z-score, replicate 2: 1.49; robust z-score, replicate 3: 2.2; call: active

Which result is listed for SYDE1?
robust z-score, replicate 1: 0.0158; robust z-score, replicate 2: -0.342; robust z-score, replicate 3: 0.233; call: inactive

How did the screen score SCGB2A2?
robust z-score, replicate 1: -0.834; robust z-score, replicate 2: -0.601; robust z-score, replicate 3: -1.07; call: inactive

Which result is listed for LOC400553?
robust z-score, replicate 1: 0.588; robust z-score, replicate 2: 0.722; robust z-score, replicate 3: 1.18; call: inactive

Which result is listed for PPP1R1B?
robust z-score, replicate 1: 0.0851; robust z-score, replicate 2: -0.639; robust z-score, replicate 3: -0.225; call: inactive

For MADD, how do the results read?
robust z-score, replicate 1: 0.626; robust z-score, replicate 2: 0.927; robust z-score, replicate 3: 0.00348; call: inactive

For EVL, what does the deposit list?
robust z-score, replicate 1: 2.49; robust z-score, replicate 2: 1.91; robust z-score, replicate 3: -1.4; call: active

What is on record for MAML1?
robust z-score, replicate 1: -0.771; robust z-score, replicate 2: -0.844; robust z-score, replicate 3: 0.253; call: inactive

With SULF2, how do the results read?
robust z-score, replicate 1: 2.69; robust z-score, replicate 2: 1.86; robust z-score, replicate 3: 2.62; call: active

For PUS7L, what does the deposit list?
robust z-score, replicate 1: 0.167; robust z-score, replicate 2: -0.0923; robust z-score, replicate 3: -0.0366; call: inactive

How did the screen score MAN2C1?
robust z-score, replicate 1: -1.08; robust z-score, replicate 2: -0.402; robust z-score, replicate 3: -1.17; call: inactive

Which result is listed for HELT?
robust z-score, replicate 1: 1.6; robust z-score, replicate 2: 1.09; robust z-score, replicate 3: 1.42; call: inactive
